These are yes or no findings as the source states them, for the method shown. Binding seen in cells or lysates may run through a third protein. Some results given as binding are weak or reduced against the parent protein; the word gives no strength.
How the values were obtained:
MARS, exogenous = target: T1, MARS, exogenous (UniProt P56192); assay: co-IP; exogenous DNA-PKcs and exogenous MARS in ACHN and 769-P cells (Supplementary Fig. 9a)
T1 sequence: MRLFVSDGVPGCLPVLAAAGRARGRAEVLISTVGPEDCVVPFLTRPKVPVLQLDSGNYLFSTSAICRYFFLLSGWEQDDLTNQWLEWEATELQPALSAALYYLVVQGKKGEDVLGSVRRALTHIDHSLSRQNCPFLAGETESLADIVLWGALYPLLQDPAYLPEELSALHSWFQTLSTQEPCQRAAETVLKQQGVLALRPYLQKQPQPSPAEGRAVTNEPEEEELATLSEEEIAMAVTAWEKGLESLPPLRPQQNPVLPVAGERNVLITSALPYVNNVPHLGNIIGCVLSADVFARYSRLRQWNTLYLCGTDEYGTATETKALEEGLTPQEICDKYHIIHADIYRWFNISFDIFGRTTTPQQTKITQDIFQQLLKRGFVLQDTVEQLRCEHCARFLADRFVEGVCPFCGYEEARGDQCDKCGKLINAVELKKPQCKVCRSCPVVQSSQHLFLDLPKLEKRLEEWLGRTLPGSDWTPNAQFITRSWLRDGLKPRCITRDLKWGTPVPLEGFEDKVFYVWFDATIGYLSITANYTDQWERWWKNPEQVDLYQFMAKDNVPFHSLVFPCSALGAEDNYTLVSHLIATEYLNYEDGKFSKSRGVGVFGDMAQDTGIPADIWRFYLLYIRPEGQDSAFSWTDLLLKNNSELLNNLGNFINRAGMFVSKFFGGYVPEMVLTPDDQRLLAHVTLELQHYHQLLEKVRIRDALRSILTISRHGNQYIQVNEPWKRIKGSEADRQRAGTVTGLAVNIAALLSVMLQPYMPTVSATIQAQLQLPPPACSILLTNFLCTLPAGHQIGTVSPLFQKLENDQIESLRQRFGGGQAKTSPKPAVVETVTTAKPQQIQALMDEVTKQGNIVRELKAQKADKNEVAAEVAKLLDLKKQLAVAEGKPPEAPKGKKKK

Sequences of proteins named here, by UniProt entry; tags and fusion partners are left off.
UniProt P78527: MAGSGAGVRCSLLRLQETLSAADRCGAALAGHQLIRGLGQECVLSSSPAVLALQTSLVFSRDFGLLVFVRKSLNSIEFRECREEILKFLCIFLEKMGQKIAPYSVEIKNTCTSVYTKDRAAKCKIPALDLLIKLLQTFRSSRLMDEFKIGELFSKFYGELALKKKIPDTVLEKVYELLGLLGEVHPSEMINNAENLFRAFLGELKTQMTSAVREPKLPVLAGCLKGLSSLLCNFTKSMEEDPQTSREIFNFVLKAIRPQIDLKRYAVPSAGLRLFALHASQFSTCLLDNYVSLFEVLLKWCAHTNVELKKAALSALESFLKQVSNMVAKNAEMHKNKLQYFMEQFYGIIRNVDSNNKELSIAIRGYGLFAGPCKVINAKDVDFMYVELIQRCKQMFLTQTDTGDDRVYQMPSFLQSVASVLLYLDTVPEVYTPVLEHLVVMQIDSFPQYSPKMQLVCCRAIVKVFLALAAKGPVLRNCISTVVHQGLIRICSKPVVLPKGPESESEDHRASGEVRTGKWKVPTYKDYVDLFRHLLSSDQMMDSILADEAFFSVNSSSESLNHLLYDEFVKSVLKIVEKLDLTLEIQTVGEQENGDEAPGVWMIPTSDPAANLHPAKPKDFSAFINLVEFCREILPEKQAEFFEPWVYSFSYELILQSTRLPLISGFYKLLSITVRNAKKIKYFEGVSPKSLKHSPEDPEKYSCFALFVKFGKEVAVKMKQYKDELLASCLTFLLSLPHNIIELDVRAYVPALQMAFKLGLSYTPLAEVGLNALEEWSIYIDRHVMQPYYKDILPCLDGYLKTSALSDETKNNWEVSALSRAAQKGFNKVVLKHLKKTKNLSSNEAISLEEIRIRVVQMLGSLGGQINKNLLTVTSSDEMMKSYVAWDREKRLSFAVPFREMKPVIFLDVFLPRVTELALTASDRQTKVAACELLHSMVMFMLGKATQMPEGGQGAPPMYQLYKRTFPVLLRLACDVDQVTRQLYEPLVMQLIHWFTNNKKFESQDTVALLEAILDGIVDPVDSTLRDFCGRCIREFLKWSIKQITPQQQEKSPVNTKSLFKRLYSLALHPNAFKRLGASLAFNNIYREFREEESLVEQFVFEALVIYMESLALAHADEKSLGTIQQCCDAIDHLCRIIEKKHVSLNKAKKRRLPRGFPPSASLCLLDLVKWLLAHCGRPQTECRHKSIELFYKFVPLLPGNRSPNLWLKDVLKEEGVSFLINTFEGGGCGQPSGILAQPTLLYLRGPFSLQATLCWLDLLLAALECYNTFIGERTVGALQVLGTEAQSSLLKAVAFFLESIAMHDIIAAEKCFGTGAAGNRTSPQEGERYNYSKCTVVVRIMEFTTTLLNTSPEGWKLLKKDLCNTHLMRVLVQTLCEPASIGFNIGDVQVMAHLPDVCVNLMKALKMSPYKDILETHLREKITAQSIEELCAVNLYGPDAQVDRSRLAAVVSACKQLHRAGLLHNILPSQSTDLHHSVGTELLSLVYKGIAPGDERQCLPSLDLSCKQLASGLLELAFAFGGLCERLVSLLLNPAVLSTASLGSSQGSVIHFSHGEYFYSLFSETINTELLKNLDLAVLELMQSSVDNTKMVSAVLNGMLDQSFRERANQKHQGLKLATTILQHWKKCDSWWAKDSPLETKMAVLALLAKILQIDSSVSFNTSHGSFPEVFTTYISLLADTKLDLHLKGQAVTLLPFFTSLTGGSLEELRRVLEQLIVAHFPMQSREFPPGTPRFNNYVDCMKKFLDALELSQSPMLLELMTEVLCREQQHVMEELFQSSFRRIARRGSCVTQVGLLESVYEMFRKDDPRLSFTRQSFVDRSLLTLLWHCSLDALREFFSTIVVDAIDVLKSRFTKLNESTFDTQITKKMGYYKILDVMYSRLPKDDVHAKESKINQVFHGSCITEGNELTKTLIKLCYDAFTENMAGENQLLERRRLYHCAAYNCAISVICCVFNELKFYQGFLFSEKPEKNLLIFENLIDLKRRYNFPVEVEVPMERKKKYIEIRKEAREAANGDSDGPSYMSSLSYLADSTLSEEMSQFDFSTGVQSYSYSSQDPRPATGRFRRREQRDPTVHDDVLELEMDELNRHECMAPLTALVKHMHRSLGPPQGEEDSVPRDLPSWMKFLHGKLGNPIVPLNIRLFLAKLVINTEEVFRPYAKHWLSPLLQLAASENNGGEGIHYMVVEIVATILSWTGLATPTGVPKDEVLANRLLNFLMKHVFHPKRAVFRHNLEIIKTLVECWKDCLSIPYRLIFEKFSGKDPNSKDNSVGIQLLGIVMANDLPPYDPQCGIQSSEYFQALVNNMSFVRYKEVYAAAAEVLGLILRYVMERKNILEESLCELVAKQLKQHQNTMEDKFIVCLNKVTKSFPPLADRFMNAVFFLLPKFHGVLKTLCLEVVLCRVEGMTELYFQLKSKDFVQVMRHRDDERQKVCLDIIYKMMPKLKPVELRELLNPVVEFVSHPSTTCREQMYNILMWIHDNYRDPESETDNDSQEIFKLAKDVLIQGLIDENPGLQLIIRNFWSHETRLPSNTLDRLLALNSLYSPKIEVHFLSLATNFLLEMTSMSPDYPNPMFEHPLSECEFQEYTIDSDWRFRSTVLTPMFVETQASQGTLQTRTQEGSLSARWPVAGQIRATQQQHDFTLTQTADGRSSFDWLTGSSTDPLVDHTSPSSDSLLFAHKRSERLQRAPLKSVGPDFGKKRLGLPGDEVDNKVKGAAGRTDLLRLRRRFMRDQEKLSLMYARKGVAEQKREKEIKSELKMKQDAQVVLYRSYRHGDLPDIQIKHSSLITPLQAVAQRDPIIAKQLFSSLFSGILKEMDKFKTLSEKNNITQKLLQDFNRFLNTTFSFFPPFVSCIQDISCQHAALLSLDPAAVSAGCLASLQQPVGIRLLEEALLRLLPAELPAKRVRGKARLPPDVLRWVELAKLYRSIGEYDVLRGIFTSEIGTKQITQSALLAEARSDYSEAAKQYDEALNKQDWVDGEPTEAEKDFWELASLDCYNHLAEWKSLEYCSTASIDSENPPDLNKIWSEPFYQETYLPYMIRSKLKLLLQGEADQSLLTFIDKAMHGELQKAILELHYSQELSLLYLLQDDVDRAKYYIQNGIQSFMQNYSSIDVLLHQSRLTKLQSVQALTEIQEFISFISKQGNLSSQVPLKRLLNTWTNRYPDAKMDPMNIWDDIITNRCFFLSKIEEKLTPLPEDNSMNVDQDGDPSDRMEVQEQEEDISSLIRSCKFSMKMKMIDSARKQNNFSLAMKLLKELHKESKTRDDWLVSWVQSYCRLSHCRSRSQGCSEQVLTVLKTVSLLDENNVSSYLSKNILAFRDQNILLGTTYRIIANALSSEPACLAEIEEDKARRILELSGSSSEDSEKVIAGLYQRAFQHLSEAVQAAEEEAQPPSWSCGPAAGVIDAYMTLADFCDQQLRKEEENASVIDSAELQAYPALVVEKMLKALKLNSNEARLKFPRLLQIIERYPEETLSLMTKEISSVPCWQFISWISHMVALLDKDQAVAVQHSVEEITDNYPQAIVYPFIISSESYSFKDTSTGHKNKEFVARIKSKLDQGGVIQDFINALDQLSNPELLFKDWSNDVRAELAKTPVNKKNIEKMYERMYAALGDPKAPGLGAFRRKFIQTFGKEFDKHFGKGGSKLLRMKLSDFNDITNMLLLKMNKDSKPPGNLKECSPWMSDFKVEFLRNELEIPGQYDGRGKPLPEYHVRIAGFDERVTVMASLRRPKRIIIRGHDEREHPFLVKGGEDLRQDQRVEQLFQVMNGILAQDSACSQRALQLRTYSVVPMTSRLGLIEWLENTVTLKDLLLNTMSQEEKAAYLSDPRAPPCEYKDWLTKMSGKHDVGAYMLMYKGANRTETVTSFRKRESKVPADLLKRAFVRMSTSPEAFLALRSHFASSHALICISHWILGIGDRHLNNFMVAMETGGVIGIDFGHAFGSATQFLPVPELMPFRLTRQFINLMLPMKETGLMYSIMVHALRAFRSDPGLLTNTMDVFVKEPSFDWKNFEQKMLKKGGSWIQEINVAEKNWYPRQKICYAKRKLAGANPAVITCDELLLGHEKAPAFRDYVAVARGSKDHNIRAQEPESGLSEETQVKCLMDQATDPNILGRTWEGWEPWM

[1] = target: T2, methionyl-tRNA synthetase (MARS), endogenous (human (endogenous in 786-O)) (UniProt P56192); assay: co-IP; endogenous DNA-PKcs and endogenous MARS in 786-O cells (Fig. 7d); n = 3 biological repeats
T2 sequence: T1 sequence

DNA-PKcs, wild type, exogenous (pcDNA3.1-Flag) (from UniProt P78527 1-4128)
binding (MARS, exogenous): binds

DNA-dependent protein kinase catalytic subunit (DNA-PKcs), endogenous (from UniProt P78527 1-4128)
binding [1]: binds

Source: publication PMC9019091
